Measurements: article PMC7600800
Results are given in words; binding and its absence hold for the method and conditions named. For some of these results: Binding seen in cells or lysates may run through a third protein. Some binding calls cover weakened binding; strength is not graded here.

The chains behind the UniProt entries cited, without tags or fusion partners. Where a name states a change or a piece, a line headed by the entry shows the natural chain unless it says otherwise.
UniProt P46527: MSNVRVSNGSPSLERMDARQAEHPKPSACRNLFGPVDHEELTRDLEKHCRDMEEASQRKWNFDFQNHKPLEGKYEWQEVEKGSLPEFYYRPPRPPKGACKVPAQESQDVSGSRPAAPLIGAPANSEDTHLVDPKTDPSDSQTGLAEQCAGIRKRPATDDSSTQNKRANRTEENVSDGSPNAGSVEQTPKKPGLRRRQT
UniProt P06748: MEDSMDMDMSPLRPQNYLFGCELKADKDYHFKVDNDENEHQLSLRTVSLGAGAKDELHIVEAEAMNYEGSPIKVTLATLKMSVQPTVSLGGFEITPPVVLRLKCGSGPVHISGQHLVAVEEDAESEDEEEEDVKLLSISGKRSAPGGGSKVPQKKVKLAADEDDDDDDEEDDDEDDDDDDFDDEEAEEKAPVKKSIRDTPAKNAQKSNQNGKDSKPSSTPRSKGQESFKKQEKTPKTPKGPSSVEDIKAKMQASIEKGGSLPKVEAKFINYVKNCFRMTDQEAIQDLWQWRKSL
UniProt Q61937: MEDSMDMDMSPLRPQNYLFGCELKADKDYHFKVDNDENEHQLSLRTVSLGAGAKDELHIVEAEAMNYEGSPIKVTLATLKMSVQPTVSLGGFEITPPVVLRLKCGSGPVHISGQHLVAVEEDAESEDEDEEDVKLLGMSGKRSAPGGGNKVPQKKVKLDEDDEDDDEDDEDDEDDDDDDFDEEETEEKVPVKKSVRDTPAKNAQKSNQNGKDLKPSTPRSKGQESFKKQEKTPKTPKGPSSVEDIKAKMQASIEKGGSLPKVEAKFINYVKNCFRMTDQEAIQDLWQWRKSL

Tests used:
[1] = molecular target: Dox-inducible p27 (human p27 cDNA, Tet-on) (human) (UniProt P46527); assay: co-IP; lysates (RIPA buffer) of NIH/3T3, U-2 OS and HT1080 cells carrying Dox-inducible p27, 10 µg/mL Dox 24 h; anti-p27 (C-19) immunoprecipitation, Western blot for NPM1; control rabbit IgG
[2] = molecular target: p27 wild type, yeast two-hybrid bait (human) (UniProt P46527); assay: two-hybrid; p27 baits in pGBTK (PJ69-4Aα), preys in pGAD424 (PJ69-4A), mated, spotted onto selection plates, 5 days
[3] = molecular target: p27 RXL mutant, yeast two-hybrid bait (human) (UniProt P46527); assay: as above

Substance | binding [1] | binding [2] | binding [3]
nucleophosmin isoform 1 (NPM1), endogenous human (from UniProt P06748 1-294) | binds |  | 
NPM1, endogenous mouse (from UniProt Q61937 1-292) | binds |  | 
nucleophosmin isoform 1 (NPM1), yeast two-hybrid prey (from UniProt P06748 1-294) |  | binds | no binding
